Measured values from patent US20200030355A1, “COMBINATION THERAPY FOR TREATING CANCER” (Epizyme, Inc., priority 2014, published 2020).
“Also recorded” adds a separate entry of the source. At least one compound was matched to its structure with a doubt left.

Columns and labels:
[1] = system: MV4-11 (MLL-AF4); test: Combination proliferation study with Compound A2 (ATP/CellTiter-Glo, Chou-Talalay combination index); format: cell-based, human
Description: (§1) The acute myelogenous leukemia cell lines MV4-11 (MLL-AF4) and MOLM-13 (MLL-AF9) were obtained from American Type Culture Collection (ATCC; Rockville, Md.) and Deutsche Sammlung von Mikroorganismen and Zellkulturen (DSMZ; Braunschweig, Germany) respectively.
(§2) Studies were performed using MLL-rearranged cell lines in vitro to evaluate the anti-proliferative effect of a combination of two agents together on cell growth. Initial proliferation studies were performed to determine the IC50 of a given compound in each cell line. The cell counts were measured by ATP quantitation using the Promega Cell Titer Glo kit and luminescence values corresponded to the amount of ATP in a given well.
(§3) Compounds were evaluated for synergy in the co-treatment phase by testing the compounds in a concentration range which was bracketed around their IC50 values. […]
(§4) The drug combination analysis was performed utilizing the Chou-Talalay method Synergy was determined using the software package Calcusyn by Biosoft. The combination index (CI) is a quantitative term used to describe the level of synergy or antagonism in a given test system. […]
(§5) Graphs representing values of combination index (CI) versus Fractional effect (Fa) known as Fa-CI plots were generated and synergy was evaluated. […]
as §5
(§6) The HP-D300 digital dispenser (Tecan) was used to dispense compounds in a combinatorial matrix. […] Cell viability was measured via ATP content using CellTiter-Glo® (Promega).
(§7) Viability was determined using CellTiter-Glo® (Promega).
(§8) Proliferation studies were performed using MOLM-13, MV4-11 and SKM-1 cell lines in vitro to evaluate the cancer cell killing effect of a combination of two agents together on cell growth. […] The cell counts were measured by ATP quantitation using the Promega Cell Titer Glo kit and luminescence values correspond to the amount of ATP in a given well. […]
Compounds evaluated for synergy in the co-treatment phase were tested in a range which was bracketed around the IC50's. […]

[2] = system: MOLM-13 (MLL-AF9); test: as above; format: cell-based, human; details: 7 Day Cotreatment Model, Table 4
Description: as §1, §2, §3, §4, §5, §5
Cell viability was measured via ATP content using CellTiter-Glo® (Promega).
as §8
Compounds evaluated for synergy in the co-treatment phase were tested in a range which was bracketed around the IC50's.

[3] = system: SKM-1 (non-MLL-rearranged AML); test: as above; format: cell-based, human
Description: (§9) Graphs representing values of combination index (CI) versus Fractional effect (Fa) known as Fa-CI plots were generated and synergy was evaluated.
as §9, §6, §7
MV4-11 cells were maintained in IMDM supplemented with 10% fetal bovine serum. […]
Proliferation studies were performed using MOLM-13, MV4-11 and SKM-1 cell lines in vitro to evaluate the cancer cell killing effect of a combination of two agents together on cell growth. […] The cell counts were measured by ATP quantitation using the Promega Cell Titer Glo kit and luminescence values correspond to the amount of ATP in a given well.
Compounds evaluated for synergy in the co-treatment phase were tested in a range which was bracketed around the IC50's. […] Synergy was determined using the software package Calcusyn by Biosoft. […]
The drug combination analysis was performed using the Chou-Talalay method. Graphs representing values of combination index (CI) versus Fractional effect (Fa) known as Fa-CI plots were generated and synergy was evaluated.

[4] = system: MOLM-13 cells; test: Cell cycle / sub-G1 flow cytometry; format: cell-based, human; details: 14 day treatment, 156 nM Compound A2 or 63 nM Ara-C
Description: A Guava EasyCyte HT™ flow cytometer was used to measure DNA content, Annexin V staining and cell surface expression of CD14 and CD11b markers on Days 10 and 14.
On Day 0 MOLM-13 cells are seeded at 3,000 cells/mL. On Day 7 and Day 10 MOLM-13 cells are counted and reseeded at 50,000 cells/mL. […] On Day 10 They were redosed again. On Day 14 the experiment was terminated. Cells were sampled for CD14 and CD11b analysis on Days 7, 10 and 14.
To evaluate the fraction of cells in each cell cycle, flow cytometric analysis was performed. FACS analysis for detection of cell death by apoptosis, and cell cycle was performed.
Cells were harvested on days 7, 10 and 14 and split to allow simultaneous analysis of cell cycle and Annexin V staining. Apoptosis was determined using the Guava Nexin Assay (Millipore 4500-0450) and cells were prepared according to the manufacturer's recommendations. Samples were analyzed using the Guava EasyCyte Plus System (Millipore). Cells for cell cycle analysis were pelleted by centrifugation at 200×g for 5 minutes at 4° C., washed twice with ice cold PBS then fixed with 70% ice cold ethanol. All samples were analyzed together at end of experiment. Following fixation cells were washed with PBS and stained with the Guava cell cycle reagent (Millipore 4500-0220) for 30 minutes. Samples were analyzed using the Guava EasyCyte Plus System (Millipore).

[5] = system: SKM-1 (non-MLL-r); test: Compound A2 7-day pre-treatment, then Compound A2 and Compound 1 for 3 days, CellTiter-Glo (Example 9); format: cell-based, human; details: earlier characterization
Description: (§10) At the endpoint, cell viability was measured via ATP content using CellTiter-Glo®.

[6] = system: MOLM-13 (MLL-AF9); test: as above; format: cell-based, human; details: earlier characterization
Description: as §10

[7] = system: MLL-rearranged leukemia xenograft; details: rat xenograft; Daigle et al. Blood 2013; cited from earlier work
[8] = system: H3K79me2; details: four days of treatment; previous studies (Daigle et al, 2013); cited from earlier work

C/C=C1\NC(=O)[C@H]2CSSCC/C=C/[C@H](CC(=O)N[C@H](C(C)C)C(=O)N2)OC(=O)[C@H](C(C)C)NC1=O [Romidepsin]
Combination with Compound A2, MV4-11 [1]: No change IC50

CO[C@@H]1[C@H](N(C)C(=O)c2ccccc2)C[C@H]2O[C@]1(C)n1c3ccccc3c3c4c(c5c6ccccc6n2c5c31)C(=O)NC4 [Midostaurin]
Combination with Compound A2, MOLM-13 (MLL-AF9) [2]: Additive --> Synergy

CC(C)N(C[C@H]1O[C@@H](n2cnc3c(N)ncnc32)[C@H](O)[C@@H]1O)[C@H]1C[C@@H](CCc2nc3cc(C(C)(C)C)ccc3[nH]2)C1 [Compound A2, pinometostat]
Single agent antiproliferative activity ([3]; SKM-1, non-MLL rearranged): no single agent activity; also recorded: no effect alone
sub-G1 cell population, single agent [4]: moderate, time-dependent increase in sub-G1 population
EPZ-5676 Sensitivity [5]: Insensitive
EPZ-5676 Sensitivity [6]: Sensitive
Antitumor effect in xenograft [7]: sustained tumor regressions
Depletion of cellular levels of H3K79me2 [8]: ≥ 80%

Nc1ncn([C@H]2C[C@H](O)[C@@H](CO)O2)c(=O)n1 [Decitabine]
Combination of Compound A2 and anti-cancer agent, MV4-11 ([1]; 7 Day Cotreatment): Additive
Combination with Compound A2, MV4-11 (MLL-AF4) ([1]; 7 Day Cotreatment Model, Table 4, listed as decitabine): synergistic anti-proliferative activity
Effect of Compound A2 on the antiproliferative activity of the second agent ([3]; SKM-1, non-MLL-rearranged, Example 5): no impact
Combination with Compound A2, MOLM-13 (MLL-AF9) ([2]; listed as decitabine): synergistic anti-proliferative activity

C=CC(=O)N1CCC[C@@H](n2nc(-c3ccc(Oc4ccccc4)cc3)c3c(N)ncnc32)C1 [Ibrutinib]
Combination with Compound A2, MOLM-13 (MLL-AF9) [2]: Antagonistic/Additive
